The entries are a selection whose mix differs from that of the whole data set. At the low end of the ranking the order means little.
target: T1, FEV (UniProt Q99581); assay: DAPPL (digital affinity profiling via proximity ligation, sequencing); conditions: 10 mM Tris-HCl pH 7.5, 50 mM NaCl, 1 mM DTT, 4% glycerol, room temperature, 30 min; GST-TFs on glutathione beads, 16-mer random dsDNA library, 0.1% …; high values mean tight binding; double strand, one strand shown; scale: fold enrichment (6-mer frequency, TF over GST control)
T1 sequence: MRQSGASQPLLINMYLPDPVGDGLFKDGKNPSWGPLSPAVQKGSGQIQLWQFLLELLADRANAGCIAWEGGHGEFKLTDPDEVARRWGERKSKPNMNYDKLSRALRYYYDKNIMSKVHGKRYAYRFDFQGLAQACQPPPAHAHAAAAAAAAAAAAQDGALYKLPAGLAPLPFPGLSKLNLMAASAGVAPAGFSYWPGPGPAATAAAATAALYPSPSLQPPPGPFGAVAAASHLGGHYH

By UniProt entry, the sequences of proteins in these tests, tags left out. Where a name states a change or a piece, a line headed by the entry shows the natural chain unless it says otherwise.
UniProt O43186: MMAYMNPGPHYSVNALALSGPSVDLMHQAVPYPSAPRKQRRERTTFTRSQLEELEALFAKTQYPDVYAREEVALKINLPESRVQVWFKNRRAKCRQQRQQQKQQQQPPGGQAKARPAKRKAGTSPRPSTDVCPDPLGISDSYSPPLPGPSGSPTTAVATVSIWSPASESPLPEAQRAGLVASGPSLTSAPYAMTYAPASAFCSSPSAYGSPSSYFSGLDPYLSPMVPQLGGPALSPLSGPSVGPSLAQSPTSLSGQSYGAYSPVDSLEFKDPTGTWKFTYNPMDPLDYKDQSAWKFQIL

| Sequence | binding signal |
| --- | --- |
| GGGACT | 0.696 |
| GGGCCA | 0.739 |
| GTAGCC | 0.949 |
| AGCGCG | 0.732 |
| AGACTG | 0.491 |
| CTGAGA | 0.774 |
| GTGGGT | 0.439 |
| GGCCGC | 0.815 |
| GACAAG | 0.81 |
| GAGTGC | 0.648 |
| GATTGA | 0.875 |
| GTAAGT | 0.693 |
| CGTAAG | 0.684 |
| GAGCGG | 0.537 |
| ATGAGA | 0.886 |
| CAAAGG | 0.811 |
| CCCAGT | 0.654 |
| GACGGG | 0.445 |
| AACGTG | 0.36 |
| CGTGCA | 0.647 |

| Sequence | binding signal |
| --- | --- |
| GTGAAC | 0.859 |
| GCAAGT | 0.802 |
| GGTGAG | 0.347 |
| AGGCTG | 0.632 |
| CAGACA | 0.799 |
| CAGGCA | 0.711 |
| CGCGGG | 0.778 |
| GACCAT | 0.89 |
| GCACGG | 0.809 |
| CAGTAA | 0.713 |
| TGGAGC | 0.625 |
| CAGGTC | 0.633 |
| CCGGGA | 0.456 |
| TAGACG | 0.767 |
| AGGGAG | 0.345 |
| CCGGGG | 0.742 |
| GTCGAA | 0.614 |
| CCGTAG | 0.785 |
| CCAGAG | 0.663 |

target: CRX (UniProt O43186); assay: as above; conditions: 10 mM Tris-HCl pH 7.5, 50 mM NaCl, 1 mM DTT, 4% glycerol, room temperature, 30 min; GST-TFs on glutathione beads, 16-mer random dsDNA library, 0.1% …; high values mean tight binding; double strand, one strand shown; scale: fold enrichment (6-mer frequency, TF over GST control)

| Sequence | binding signal |
| --- | --- |
| GGGACT | 0.653 |
| GGGCCA | 0.525 |
| GTAGCC | 0.699 |
| AGCGCG | 0.665 |
| AGACTG | 0.494 |
| CTGAGA | 0.821 |
| GTGGGT | 0.373 |
| GGCCGC | 0.565 |
| GACAAG | 0.642 |
| GAGTGC | 0.526 |
| GATTGA | 1.11 |
| GTAAGT | 0.812 |
| CGTAAG | 0.954 |
| GAGCGG | 0.407 |
| ATGAGA | 0.886 |
| CAAAGG | 0.797 |
| CCCAGT | 0.517 |
| GACGGG | 0.339 |
| AACGTG | 0.331 |
| CGTGCA | 0.51 |

| Sequence | binding signal |
| --- | --- |
| GTGAAC | 0.565 |
| GCAAGT | 0.619 |
| GGTGAG | 0.284 |
| AGGCTG | 0.606 |
| CAGACA | 0.648 |
| CAGGCA | 0.562 |
| CGCGGG | 0.555 |
| GACCAT | 0.661 |
| GCACGG | 0.634 |
| CAGTAA | 0.862 |
| TGGAGC | 0.561 |
| CAGGTC | 0.514 |
| CCGGGA | 0.324 |
| TAGACG | 0.841 |
| AGGGAG | 0.31 |
| CCGGGG | 0.531 |
| GTCGAA | 0.569 |
| CCGTAG | 0.707 |
| CCAGAG | 0.668 |

target: T2, ELF5 (UniProt Q9UKW6-2); assay: as above; conditions: 10 mM Tris-HCl pH 7.5, 50 mM NaCl, 1 mM DTT, 4% glycerol, room temperature, 30 min; GST-TFs on glutathione beads, 16-mer random dsDNA library, 0.1% …; high values mean tight binding; double strand, one strand shown; scale: fold enrichment (6-mer frequency, TF over GST control)
T2 sequence: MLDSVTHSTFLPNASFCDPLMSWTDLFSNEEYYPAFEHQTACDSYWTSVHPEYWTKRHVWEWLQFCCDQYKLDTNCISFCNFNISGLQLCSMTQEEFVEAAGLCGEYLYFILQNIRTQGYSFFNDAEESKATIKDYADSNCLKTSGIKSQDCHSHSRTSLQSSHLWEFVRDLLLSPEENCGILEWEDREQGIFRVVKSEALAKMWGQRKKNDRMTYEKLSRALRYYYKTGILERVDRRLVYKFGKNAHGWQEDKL

| Sequence | binding signal |
| --- | --- |
| GGGACT | 0.646 |
| GGGCCA | 0.625 |
| GTAGCC | 0.984 |
| AGCGCG | 0.77 |
| AGACTG | 0.498 |
| CTGAGA | 0.735 |
| GTGGGT | 0.445 |
| GGCCGC | 0.738 |
| GACAAG | 0.751 |
| GAGTGC | 0.654 |
| GATTGA | 0.786 |
| GTAAGT | 0.75 |
| CGTAAG | 0.799 |
| GAGCGG | 0.496 |
| ATGAGA | 0.785 |
| CAAAGG | 0.833 |
| CCCAGT | 0.582 |
| GACGGG | 0.459 |
| AACGTG | 0.349 |
| CGTGCA | 0.642 |

| Sequence | binding signal |
| --- | --- |
| GTGAAC | 0.828 |
| GCAAGT | 0.826 |
| GGTGAG | 0.317 |
| AGGCTG | 0.633 |
| CAGACA | 0.815 |
| CAGGCA | 0.663 |
| CGCGGG | 0.724 |
| GACCAT | 0.824 |
| GCACGG | 0.852 |
| CAGTAA | 0.68 |
| TGGAGC | 0.621 |
| CAGGTC | 0.665 |
| CCGGGA | 0.729 |
| TAGACG | 0.724 |
| AGGGAG | 0.344 |
| CCGGGG | 0.791 |
| GTCGAA | 0.592 |
| CCGTAG | 0.841 |
| CCAGAG | 0.626 |

From publication PMC7862700
